According to PMC5437309:
Results are given in words; binding and its absence hold for the method and conditions named. In cells and extracts the contact can be indirect. Binding can be weak; no strength is given. Tags and fused reporters may be left off the sequences shown.

Chains of the proteins cited; added tags and fusions are not shown. Lines headed by an entry give the natural chain unless they say otherwise; changes in a name come on top.
UniProt Q16539: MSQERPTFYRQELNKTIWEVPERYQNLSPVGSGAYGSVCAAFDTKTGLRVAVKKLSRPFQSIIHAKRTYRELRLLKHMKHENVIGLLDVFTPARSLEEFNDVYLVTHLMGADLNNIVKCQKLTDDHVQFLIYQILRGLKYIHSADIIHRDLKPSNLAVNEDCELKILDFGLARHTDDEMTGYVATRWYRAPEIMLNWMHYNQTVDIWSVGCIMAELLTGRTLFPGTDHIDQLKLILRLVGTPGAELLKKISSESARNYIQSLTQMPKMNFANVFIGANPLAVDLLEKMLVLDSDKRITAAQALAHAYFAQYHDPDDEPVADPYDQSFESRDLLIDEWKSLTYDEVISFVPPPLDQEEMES

Target: GST-p38α (UniProt Q16539)
Test: pull-down; GST-p38α (10 μg) on glutathione beads, rotated 1 h at +4 °C with cleared 293T lysate holding the luciferase fusion (7,000 units), low-salt buffer with 0.5% Igepal, washed three times; luciferase on beads as per cent of input; only the target purified

binding: binds
B1: Luc-MKK3b (enzyme, UniProt P46734 1-347)
chain: MESPASSQPASMPQSKGKSKRKKDLRISCMSKPPAPNPTPPRNLDSRTFITIGDRNFEVEADDLVTISELGRGAYGVVEKVRHAQSGTIMAVKRIRATVNSQEQKRLLMDLDINMRTVDCFYTVTFYGALFREGDVWICMELMDTSLDKFYRKVLDKNMTIPEDILGEIAVSIVRALEHLHSKLSVIHRDVKPSNVLINKEGHVKMCDFGISGYLVDSVAKTMDAGCKPYMAPERINPELNQKGYNVKSDVWSLGITMIEMAILRFPYESWGTPFQQLKQVVEEPSPQLPADRFSPEFVDFTAQCLRKNPAERMSYLELMEHPFFTLHKTKKTDIAAFVKEILGEDS
